Laboratory results reported in publication PMC10570388.

How the values were obtained:
Assay in all cases: two-hybrid; One-to-one Matchmaker Gold Y2H in Y2HGold cells: pGBKT7-bait and pGADT7-prey; growth and blue colour on QDO/X/A against DDO, 3–5 days at 30 °C
[1] = target: PoxRsrA_(1434–1730)^D1508A (Penicillium oxalicum)
[2] = target: PoxRsrA_(1128-1730) (Penicillium oxalicum)
[3] = target: PoxRsrA_(1128-1440) (Penicillium oxalicum)
[4] = target: PoxRsrA_(1434–1730)^M1510A (Penicillium oxalicum)
[5] = target: PoxRsrA_(1434–1730)^W1509A (Penicillium oxalicum)

binding [1]: no binding | binding [2]: binds | binding [3]: no binding | binding [4]: no binding | binding [5]: binds
B1: Med8 (POX_b02367) (protein, UniProt S8B7D0 1-260)
chain: MAPLTSEDYKVLEQARQRLVQLTRSLGSLVSSLEQGDPLPPWSSIQAQANIISNNLISVTEHLSDHRDLLTSIVAYPGPEYPGRTQENMLQQLLRTKLDPRVDDWVARGRAIGTAPNTSSVTHAASSGTIPNPSEVATTNTKQLTDAELTELWQWAPIEANQEARQRNWGGNYTLEEREAGIQNVVTGLRKPLEDDDGSDDEDEDEGEDDEGEDEMEVVGVHRKPSGGVEYDIAPHHAHPVTPVVPLDKILRYMTTGHMP

binding [2]: binds | binding [3]: binds
B2: Med6 (POX_c04649) (protein, UniProt S8AK07 1-340)
chain: MASQSAPMEEIIWRSPQHVQMMGGYLHSNNILFYFAESPFFDPQSNNGTLATQATYNESLRHVVETRATFEGKLKQMQGLEFLVSFDPLEAAARSNPNRFDFEPNNIWVIRKQERRKRSGMEDEVTVLATYFVVGDTVYMAPSVASIVGNRILTAVTSISRLMKTASTLPIFTPSTGHTYLPPTARTTESGQQPSQPSKENTPMPDAPQPSVAETQISGKASLGVSTGSSSYQDIRNLAEAFRLFNQYGDEFMDEHPLTGEPGSFILSRAGETDRPAGAAAKVASKASLGTGVNTPAGIRARSTTPQVRIDTPGKLSDKGNTPPSSVENKLKKKKGRVVS

binding [1]: binds | binding [2]: binds | binding [3]: no binding | binding [4]: no binding | binding [5]: binds
B3: Med16 (POX_d05606) (protein, UniProt S7ZNH3 1-950)
chain: MPLIMDEGINVDDLFGEAHSLDLGLPPAASLPATKGLAQCLDEMRLLGCRQRIAWSRLGAIAYISADGVRVCVRNLQSGLSDGKWGLSDECSLAPVTEAHNGNQLVHLSWSDAGSDLAVVDCMGRISIYSIFMALNNITGLRQASYDSGDDSNQIVGLMWLNPGRQVQAYQQAAKLNNRWAYSPFRWRPTHPSHPAGKSSLITVTRAGQIRLMYQNINGKWAEVPAELKNTGYSDRLLTHAAMVATQGTILLATYSVCQKLCLYRVEIAWTPNKWDPTVMRSPNKWPVPALRLLHYKIDMPSSIWSINHDSEAQMAQSVPFPNSVYSLTRLEMIPGQVDSPTGPTTTSPWILGVFSKPLHASSEFPLQQGPASVIVRWQLDSTQQSLHPKFDEVVSRKTHTQIKPKIEMRRLEDIHLNKYIVSVDLMEHVTAPALALTHSDGSIAFYETKTMTLFNGLDDASTVNCFAQAGFQFPIDAPGLSIAFSPNSCAAVVLDSGSQPRLRWMEHNFGSSGGLYDEGKFSAAIAALTLAFSRGSGSDSNTDDIMMVVLGQLSLENQPTFLGEVYRALSINCNFTVEPDKIMTHTYIPRALSLQTSLGFRGRNRPRTMPSAMSWTVLQLRHSSLLFATYFQHCNNFPAEQSDSGILHALLGNTRWALSMSQFILNEILDLADDFESVLHDSEAFSQKLKTTTSLPLLISLSSMSRAFMRIICRGLRGVRNGFENVNTAAIDAESRSCWVEICRAIETSPIRVDLYEKFLAGVDSAVKHAYQGSGFGDAERPSPEKELLVNARIPPVLVPAVETLFTQTVPSIRSEINRKEIVMGDYSWLGLDNDPGTATYRKRHDIDILMKVPLRPVTGRQDLAVAPMARRRRCVRCGEISGDAGRPRTNAWTKMMLRLHALKMCPCGGAWVMETPDSVSPEGVSSSGGLGGSGPVNVSKAVEVAGSG

No constants are given. Whether binding was seen depends on the method and setting. For part of these data: Binding can be weak; no strength is given. One block for each binder: values may come before it.
